Laboratory results: PubChem BioAssay AID540256 (National Center for Advancing Translational Sciences (NCATS), 2011)
Screen size: about 300,000 compounds; about 3,700 (1.2%) were called active. Inconclusive means that the source gave no clear call. Such entries were picked first, then a sample of the others. The call rests on the fitted dose curve; tested in HEK293 cells. Potencies beside an inconclusive call are fits to weak or partial responses and may not hold up.

Assay: qHTS for Inhibitors of binding or entry into cells for Lassa Virus; further: nearly all actives have a fitted effect of over 50% in size
Settings: Lassa virus pseudotype entry inhibition, cell reporter; activity change, negative = inhibition: at 37.9 µM (top of the series) unless noted
On the % scale 0 is the no-effect control and ±100 the full control effect; potency means the concentration at half of the fitted maximal effect.

| Compound | Potency | activity change, negative = inhibition |
| --- | --- | --- |
| CCc1ccccc1NC(=O)CNCC(=O)Nc1ccccc1CC | inconclusive: 12.6 µM [activator, partial curve, poor fit] | – |
| CC(=O)OC1(C(C)=O)CCC2C3CC(C(F)(F)F)C4=CC(=O)CCC4(C)C3CCC21C (stereo not given) | inconclusive: 8.91 µM [inhibitor, partial curve, poor fit] | – |
| CCOc1ccccc1NC(=O)C1Cc2ccccc2CN1S(C)(=O)=O (stereo not given) | – | inactive: 9.58% |
| Cc1cccc(C)c1OCc1cc(C(=O)N2CCC[C@H]2C(N)=O)no1 | – | inactive: 4.22% |
| Cc1ccc(C(=O)Nc2sc(C)c(-c3ccccc3)c2C(N)=O)cc1[N+](=O)[O-] | inconclusive: 25.1 µM [inhibitor, single point] | – |
| COc1ccc(CNC(=O)c2noc3c2CCCC3)cc1 | inconclusive: 0.082 µM [inhibitor, full curve, poor fit] | – |
| COc1ccc(-c2c(C)nc3c(-c4ccccn4)cnn3c2N)cc1 | inconclusive: 10 µM [inhibitor, partial curve, poor fit] | – |
| CCOc1cc(CNc2ccc3c(c2)CCC3)ccc1O | – | inactive: -1.4% |
| CCCCOc1ccc(C(=O)N(Cc2ccc(N(C)C)cc2)Cc2ccco2)cc1 | inconclusive: 5.01 µM [inhibitor, partial curve] | – |
| COc1ccc(C(=O)Cc2cc(OC)c(OC)cc2[N+](=O)[O-])c(OC)c1 | – | inactive: 9.6% |
| CN1c2ccsc2/C(=N/Nc2ccccc2)CS1(=O)=O | inconclusive: 10 µM [activator, partial curve, poor fit] | – |
| CC(C)(C)c1ccc(-c2nc(NC(=O)CSc3ncnc4sc5c(c34)CCCC5)ns2)cc1 | – | inactive: 17.3% [at 46.1 µM] |
| CC(C)(C)n1nnnc1C(c1cccnc1)N1CCN(C2CCCCC2)CC1 (stereo not given) | inconclusive: 0.73 µM [inhibitor, partial curve, poor fit] | – |
| Fc1cccc(Cl)c1Cn1nnc2c(NCc3ccncc3)ncnc21 | inconclusive: 8.91 µM [inhibitor, partial curve, poor fit] | – |
| CC(C)N=C(NS(=O)(=O)c1ccc(Br)cc1)c1ccc(Cl)cc1 | inconclusive: 2.82 µM [activator, full curve, poor fit] | – |
| O=C(NCc1ccc2c(c1)OCO2)c1ccc2c(c1)N(Cc1ccccc1F)C(=O)c1ccccc1S2 | inconclusive: 1 µM [inhibitor, full curve, poor fit] | – |
| CN(Cc1ccccc1)C(=O)C1CCN(S(=O)(=O)c2cccc3nonc23)CC1 | inconclusive: 7.08 µM [inhibitor, partial curve, poor fit] | – |
| CCc1ccccc1NC(=O)CN(c1ccccc1)S(=O)(=O)c1ccsc1C(=O)OC | inconclusive: 3.16 µM [inhibitor, partial curve, poor fit] | – |
| CCCOc1ccc(-c2cccc(NS(=O)(=O)c3ccccc3)c2)nn1 | inconclusive: 22.4 µM [inhibitor, single point] | – |
| Cc1ccccc1CN1C(=O)c2ccccc2S(=O)c2ccc(C(=O)NCc3ccc(Cl)cc3)cc21 (stereo not given) | – | inactive: -19.4% [at 46.1 µM] |
| CCC(=O)C1=C(c2ccc(F)cc2)N(C(=O)CC)n2cnnc2S1 | inconclusive: 22.4 µM [inhibitor, single point] | – |
| C=CCn1cc(C(=O)NCCCOC)c(=O)c2cc(S(=O)(=O)N(CC)CC)ccc21 | inconclusive: 7.3 µM [inhibitor, partial curve] | – |

| Compound | Potency | activity change, negative = inhibition |
| --- | --- | --- |
| Cc1cccc(OC(=O)c2cccnc2)c1 | inconclusive: 5.01 µM [inhibitor, single point] | – |
| Cc1ccc(C(C(=O)NCC2CCCO2)N(C(=O)c2snc(C(N)=O)c2N)c2ccc(F)cc2)o1 (stereo not given) | inconclusive: 35.5 µM [inhibitor, single point] | – |
| CCOCCCNC(=O)C(c1ccccc1)N(Cc1ccc2c(c1)OCO2)C(=O)c1ccc(NC(C)=O)cc1 (stereo not given) | inconclusive: 3.16 µM [inhibitor, partial curve, poor fit] | – |
| C[C@]12CC[C@@H]3c4ccc(O)cc4C[C@@H](CCCCCCCCCS(=O)CCCC(F)(F)C(F)(F)F)[C@H]3[C@@H]1CC[C@@H]2O (stereo not given in full) | active: 3.26 µM | – |
| COc1ccc(O)c(C(=O)c2cc(C#N)c(=O)n(-c3c(C)n(C)n(-c4ccccc4)c3=O)c2)c1 | inconclusive: 0.447 µM [inhibitor, partial curve, poor fit] | – |
| O=C(Cn1cnc2ccccc2c1=O)NNC(=O)c1ccccc1 | inconclusive: 35.5 µM [activator, partial curve, poor fit] | – |
| COc1ccc(C(C(=O)NCc2ccccc2)N(C(=O)c2snc(C(N)=O)c2N)c2ccccc2OC)cc1OC (stereo not given) | – | inactive: -21.7% |
| COc1ccc(/C=C(\NC(=O)c2ccccc2Cl)C(=O)NCCCC(=O)O)cc1 | – | inactive: -18.2% [at 46.1 µM] |
| CCc1ccccc1NC(=O)Cn1cc(S(=O)(=O)N2CCCC2)c(S(=O)(=O)N2CCCC2)c1 | inconclusive: 28.2 µM [activator, single point] | – |
| CC(C)CCNC(=O)CN(C(=O)Cn1nnc(-c2ccccc2F)n1)c1cccc2c1CCCC2 | – | inactive: -1.73% |
| COc1ccccc1-n1cc([C@@H]2C[C@H]3CN(c4ccccc4)C(=O)[C@]34CCCN24)cn1 | inconclusive: 10 µM [inhibitor, partial curve, poor fit] | – |
| Cc1ccccc1OCCNc1cc(N2CCN(CCO)CC2)ccc1[N+](=O)[O-] | – | inactive: -26.5% |
| O=c1c2c(nc3nc(NCc4cccc(Cl)c4)[nH]n13)CCC2 | – | inactive: -9.13% |
| C=Cn1ccnc1P(=S)(c1ccccc1)c1nccn1C=C | – | inactive: 5.74% |
| CCOC(=O)CN(C(=O)Cn1nnc2ccccc21)C(C(=O)NCCOC)c1ccccc1C (stereo not given) | inconclusive: 31.6 µM [activator, single point] | – |
| C/C(N)=C(/C#N)C(=O)CSc1nnnn1-c1ccccc1 | – | inactive: 1.59% |
| CCOc1ccc(/C=C2\C(=O)c3ccccc3OC2c2ccccc2)cc1 (stereo not given) | inconclusive: 14.6 µM [inhibitor, partial curve, poor fit] | – |
| NC(=O)c1nsc(C(=O)N(c2cccc(F)c2)C(C(=O)NCC2CCCO2)c2c[nH]c3ccccc23)c1N (stereo not given) | inconclusive: 3.98 µM [inhibitor, partial curve, poor fit] | – |
| Cc1ccc(Cl)cc1N1CCN(CC(=O)Nc2ccc(CN3CCCCC3)cc2)CC1 | inconclusive: 35.5 µM [inhibitor, single point] | – |
| Cc1ccc(N(C(=O)CCC(=O)Nc2ccccn2)C(C(=O)NC(C)C)c2ccc(F)cc2)cc1 (stereo not given) | inconclusive: 3.55 µM [inhibitor, single point] | – |
| C=CCn1c(SCc2cccc(F)c2)nc2cc(C(=O)N3CCC(C(N)=O)CC3)ccc2c1=O | inconclusive: 7.31 µM [inhibitor, partial curve] | – |
| CCc1nnc(NC(=O)CSc2nc(C)cc(C)c2C#N)s1 | inconclusive: 6.31 µM [inhibitor, partial curve, poor fit] | – |

| Compound | Potency | activity change, negative = inhibition |
| --- | --- | --- |
| Cc1cc(=O)[nH]c(Nc2ccccc2C)n1 | – | inactive: 1% |
| CCOc1cc(C(=O)O)cc(Cl)c1OC | – | inactive: 10.9% |
| Fc1ccc(COc2ccc(-c3nnco3)cc2)c(Cl)c1 | inconclusive: 20 µM [inhibitor, single point] | – |
| Cc1ccc(CN(c2ccc(C(=O)N3CCc4ccccc4C3)cc2)S(C)(=O)=O)cc1 | inconclusive: 32.6 µM [inhibitor, single point] | – |
| Cc1onc(-c2ccccc2Cl)c1C(=O)OCC(=O)c1ccc[nH]1 | – | inactive: 9.37% |
| CC(=O)c1cccc(NC(=O)COC(=O)c2ccccc2C)c1 | inconclusive: 11.2 µM [activator, partial curve, poor fit] | – |
| Cc1c(Cl)cccc1NC(=O)c1ccc2c(c1)CCCN2S(C)(=O)=O | – | inactive: 22% [at 46.1 µM] |
| COc1cc(C2NC(=O)N(C)C3=C2C(=O)CCC3)cc(OC)c1OC (stereo not given) | – | inactive: 22.6% |
| CC1=NN=C(c2ccc(N)cc2)c2cc3c(cc2C1)OCO3 | inconclusive: 0.411 µM [activator, full curve, poor fit] | – |
| CC(C)c1ccc(OCc2nnc(SCC(=O)N3CCCCC3)o2)cc1 | inconclusive: 17.8 µM [inhibitor, single point] | – |
| Cc1ccc(CNC(=O)Nc2cc(C(=O)NCc3ccc(C(C)C)cc3)ccc2N2CCCC2)cc1 | – | inactive: 17.1% [at 46.1 µM] |
| CCOc1ccc(C(=O)N(CN2CCCC2=O)c2cccc(Cl)c2)cc1 | – | inactive: -13.5% |
| C/C(=N\NC(=O)c1nnn(-c2nonc2N)c1C(C)C)c1cc(C)sc1C | inconclusive: 7.94 µM [inhibitor, full curve, poor fit] | – |
| COc1ccc(N(CC(=O)Nc2cc(C)on2)S(=O)(=O)c2ccc(Cl)cc2)cc1 | – | inactive: -15.6% |
| CCc1cccc(CC)c1NC(=O)CSc1nnc(C(C)C)n1CC | inconclusive: 0.116 µM [inhibitor, single point] | – |
| CN1C(=O)/C(=C2\SC(N3CCCCCC3)=NC2=O)c2ccccc21 | inconclusive: 4.11 µM [activator, partial curve] | – |
| CN1CCN(S(=O)(=O)c2ccc(N(C)Cc3ccc(C(F)(F)F)cc3)c([N+](=O)[O-])c2)CC1 | inconclusive: 35.5 µM [inhibitor, single point] | – |
| CCOc1ccc(NC(=O)CCN2CCN(c3ccccc3OC)CC2)cc1 | inconclusive: 11.2 µM [inhibitor, partial curve] | – |
| COc1cc(C2CC(=O)C3=C(C2)Nc2ncnn2C3c2cccs2)cc(OC)c1OC (stereo not given) | – | inactive: -13.1% [at 46.1 µM] |
| OCC1N=C(c2ccccn2)OC1c1ccccc1 (stereo not given) | inconclusive: 4.11 µM [inhibitor, partial curve] | – |
| COc1ccc(C(=O)Nc2cc(Cl)ccc2OC(=O)c2ccc(OC)cc2)cc1 | inconclusive: 13 µM [inhibitor, single point] | – |

3 compounds drawn at random from those above:

| Compound | Potency | activity change, negative = inhibition |
| --- | --- | --- |
| CCOc1ccc(C(=O)N(CN2CCCC2=O)c2cccc(Cl)c2)cc1 | – | inactive: -13.5% |
| CCc1ccccc1NC(=O)CN(c1ccccc1)S(=O)(=O)c1ccsc1C(=O)OC | inconclusive: 3.16 µM [inhibitor, partial curve, poor fit] | – |
| Cc1cccc(C)c1OCc1cc(C(=O)N2CCC[C@H]2C(N)=O)no1 | – | inactive: 4.22% |
